# Data taken from the supplement of paper PMC5836539.
# Sequences of proteins named here, by UniProt entry; tags and fusion partners are left off. A change or cut given only in a name is not applied to a line headed by its entry.
# UniProt P27816: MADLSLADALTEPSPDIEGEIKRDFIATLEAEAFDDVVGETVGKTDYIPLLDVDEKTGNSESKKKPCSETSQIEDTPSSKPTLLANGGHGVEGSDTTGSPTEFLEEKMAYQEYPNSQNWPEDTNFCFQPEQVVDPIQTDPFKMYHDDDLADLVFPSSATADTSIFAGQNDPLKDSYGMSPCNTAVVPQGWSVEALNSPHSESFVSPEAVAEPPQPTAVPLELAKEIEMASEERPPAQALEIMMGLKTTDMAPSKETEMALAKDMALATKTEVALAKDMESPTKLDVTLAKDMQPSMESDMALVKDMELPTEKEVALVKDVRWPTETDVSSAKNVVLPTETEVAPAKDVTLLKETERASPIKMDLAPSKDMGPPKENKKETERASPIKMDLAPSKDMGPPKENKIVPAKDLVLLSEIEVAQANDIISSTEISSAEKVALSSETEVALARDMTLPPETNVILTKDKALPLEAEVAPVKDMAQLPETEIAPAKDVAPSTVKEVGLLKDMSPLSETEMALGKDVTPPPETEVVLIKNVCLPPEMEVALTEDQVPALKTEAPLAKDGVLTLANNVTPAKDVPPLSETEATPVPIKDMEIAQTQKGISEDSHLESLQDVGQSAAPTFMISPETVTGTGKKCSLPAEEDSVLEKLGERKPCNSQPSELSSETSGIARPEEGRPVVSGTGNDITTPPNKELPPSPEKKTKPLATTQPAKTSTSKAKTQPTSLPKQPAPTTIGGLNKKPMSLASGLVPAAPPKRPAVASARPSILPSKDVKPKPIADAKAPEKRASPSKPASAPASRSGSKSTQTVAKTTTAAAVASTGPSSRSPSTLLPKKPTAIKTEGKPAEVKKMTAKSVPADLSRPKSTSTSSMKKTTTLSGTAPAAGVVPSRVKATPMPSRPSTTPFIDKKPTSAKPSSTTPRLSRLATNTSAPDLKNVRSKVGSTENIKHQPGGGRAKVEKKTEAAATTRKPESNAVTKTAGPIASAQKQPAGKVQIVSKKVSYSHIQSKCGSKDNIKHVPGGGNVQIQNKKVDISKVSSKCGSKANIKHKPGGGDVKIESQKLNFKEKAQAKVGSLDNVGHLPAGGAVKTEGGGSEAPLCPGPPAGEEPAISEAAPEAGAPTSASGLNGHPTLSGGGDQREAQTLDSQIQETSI
# UniProt Q9UPY8, whole entry: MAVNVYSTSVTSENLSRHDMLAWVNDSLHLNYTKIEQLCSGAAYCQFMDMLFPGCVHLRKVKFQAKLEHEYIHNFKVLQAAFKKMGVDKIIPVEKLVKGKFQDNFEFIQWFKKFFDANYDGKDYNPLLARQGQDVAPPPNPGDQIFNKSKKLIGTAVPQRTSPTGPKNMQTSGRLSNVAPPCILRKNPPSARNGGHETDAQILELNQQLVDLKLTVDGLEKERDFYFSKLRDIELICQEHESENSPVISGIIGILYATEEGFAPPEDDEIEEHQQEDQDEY
# UniProt P43243: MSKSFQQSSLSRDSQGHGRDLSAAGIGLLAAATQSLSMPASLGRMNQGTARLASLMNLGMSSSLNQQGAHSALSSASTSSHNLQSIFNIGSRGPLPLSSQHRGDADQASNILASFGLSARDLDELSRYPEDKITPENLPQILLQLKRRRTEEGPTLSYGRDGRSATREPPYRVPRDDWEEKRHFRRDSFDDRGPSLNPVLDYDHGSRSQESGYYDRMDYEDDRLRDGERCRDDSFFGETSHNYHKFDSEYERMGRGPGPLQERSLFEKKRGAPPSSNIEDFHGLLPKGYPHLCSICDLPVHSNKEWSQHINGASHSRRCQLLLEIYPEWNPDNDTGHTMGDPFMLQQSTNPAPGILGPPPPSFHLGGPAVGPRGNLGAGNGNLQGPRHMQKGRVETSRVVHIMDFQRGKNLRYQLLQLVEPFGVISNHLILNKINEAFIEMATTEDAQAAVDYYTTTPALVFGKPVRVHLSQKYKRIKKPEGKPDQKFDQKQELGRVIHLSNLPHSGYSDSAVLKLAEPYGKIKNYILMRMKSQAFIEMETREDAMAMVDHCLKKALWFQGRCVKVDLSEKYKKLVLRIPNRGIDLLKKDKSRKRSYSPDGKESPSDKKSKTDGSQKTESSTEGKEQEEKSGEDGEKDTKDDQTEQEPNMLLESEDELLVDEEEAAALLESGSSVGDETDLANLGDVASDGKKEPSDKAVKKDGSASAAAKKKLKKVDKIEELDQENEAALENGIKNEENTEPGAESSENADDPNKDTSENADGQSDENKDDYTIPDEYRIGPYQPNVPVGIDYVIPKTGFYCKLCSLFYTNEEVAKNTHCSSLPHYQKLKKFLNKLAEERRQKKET
# UniProt P25205: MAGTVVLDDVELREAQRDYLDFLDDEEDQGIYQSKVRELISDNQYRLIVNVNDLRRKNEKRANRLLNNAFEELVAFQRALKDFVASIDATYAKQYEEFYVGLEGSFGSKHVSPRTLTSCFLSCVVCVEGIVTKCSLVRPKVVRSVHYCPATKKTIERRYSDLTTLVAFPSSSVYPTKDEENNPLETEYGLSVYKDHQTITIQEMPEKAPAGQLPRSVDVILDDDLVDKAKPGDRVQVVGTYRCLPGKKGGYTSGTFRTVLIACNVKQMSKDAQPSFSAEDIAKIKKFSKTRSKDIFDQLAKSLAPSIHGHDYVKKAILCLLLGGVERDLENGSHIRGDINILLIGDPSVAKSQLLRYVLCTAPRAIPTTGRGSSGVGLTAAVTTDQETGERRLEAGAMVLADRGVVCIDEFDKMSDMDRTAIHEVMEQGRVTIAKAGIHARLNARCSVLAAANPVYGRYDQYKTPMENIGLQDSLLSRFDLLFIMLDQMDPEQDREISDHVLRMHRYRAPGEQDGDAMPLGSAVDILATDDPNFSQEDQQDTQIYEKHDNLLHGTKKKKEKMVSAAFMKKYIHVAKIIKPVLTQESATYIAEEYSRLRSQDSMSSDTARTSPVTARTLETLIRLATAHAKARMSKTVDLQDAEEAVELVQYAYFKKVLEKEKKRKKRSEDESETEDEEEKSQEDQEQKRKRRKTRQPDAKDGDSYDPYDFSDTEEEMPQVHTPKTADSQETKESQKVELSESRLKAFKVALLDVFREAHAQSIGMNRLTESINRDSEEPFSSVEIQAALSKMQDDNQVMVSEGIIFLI
# UniProt Q15648, whole entry, looked up: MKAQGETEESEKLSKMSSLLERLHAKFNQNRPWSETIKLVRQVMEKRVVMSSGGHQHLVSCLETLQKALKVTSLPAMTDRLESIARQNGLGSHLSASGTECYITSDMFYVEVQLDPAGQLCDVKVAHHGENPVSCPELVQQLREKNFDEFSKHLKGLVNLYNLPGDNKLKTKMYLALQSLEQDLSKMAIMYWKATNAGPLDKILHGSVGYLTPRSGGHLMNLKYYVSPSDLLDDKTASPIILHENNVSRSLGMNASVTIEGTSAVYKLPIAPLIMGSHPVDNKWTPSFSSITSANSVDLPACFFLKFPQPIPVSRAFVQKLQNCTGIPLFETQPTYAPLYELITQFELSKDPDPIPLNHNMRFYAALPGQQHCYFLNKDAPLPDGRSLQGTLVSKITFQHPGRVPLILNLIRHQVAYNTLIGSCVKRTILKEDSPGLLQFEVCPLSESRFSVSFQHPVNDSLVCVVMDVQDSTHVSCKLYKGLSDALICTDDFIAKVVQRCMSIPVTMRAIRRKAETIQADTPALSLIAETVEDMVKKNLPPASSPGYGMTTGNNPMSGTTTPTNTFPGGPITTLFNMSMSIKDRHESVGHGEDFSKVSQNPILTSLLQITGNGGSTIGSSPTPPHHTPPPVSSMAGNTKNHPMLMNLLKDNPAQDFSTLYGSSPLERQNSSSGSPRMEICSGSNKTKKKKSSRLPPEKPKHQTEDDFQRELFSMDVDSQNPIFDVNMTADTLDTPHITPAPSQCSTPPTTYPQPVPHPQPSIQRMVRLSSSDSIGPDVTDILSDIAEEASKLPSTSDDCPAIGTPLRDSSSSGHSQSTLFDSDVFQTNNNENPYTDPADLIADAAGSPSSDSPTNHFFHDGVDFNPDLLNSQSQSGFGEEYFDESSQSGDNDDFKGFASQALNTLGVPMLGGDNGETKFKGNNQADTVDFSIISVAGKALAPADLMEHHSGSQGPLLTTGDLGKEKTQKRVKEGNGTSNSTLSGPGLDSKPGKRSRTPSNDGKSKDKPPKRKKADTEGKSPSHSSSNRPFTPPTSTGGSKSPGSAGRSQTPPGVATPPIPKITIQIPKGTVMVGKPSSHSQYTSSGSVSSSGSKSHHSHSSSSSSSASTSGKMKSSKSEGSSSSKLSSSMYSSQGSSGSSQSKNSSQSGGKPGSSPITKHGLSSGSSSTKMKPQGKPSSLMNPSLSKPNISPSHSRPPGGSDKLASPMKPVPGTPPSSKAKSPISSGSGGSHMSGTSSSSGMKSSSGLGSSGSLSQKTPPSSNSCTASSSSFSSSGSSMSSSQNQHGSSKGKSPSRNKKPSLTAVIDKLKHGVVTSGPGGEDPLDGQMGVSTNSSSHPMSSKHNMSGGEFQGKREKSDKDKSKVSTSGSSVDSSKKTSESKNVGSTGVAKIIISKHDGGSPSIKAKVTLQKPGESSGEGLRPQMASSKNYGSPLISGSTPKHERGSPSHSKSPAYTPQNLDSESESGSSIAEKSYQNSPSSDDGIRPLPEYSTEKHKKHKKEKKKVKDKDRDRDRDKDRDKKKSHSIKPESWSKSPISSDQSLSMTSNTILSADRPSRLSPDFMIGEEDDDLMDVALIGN
# UniProt Q8N3F8: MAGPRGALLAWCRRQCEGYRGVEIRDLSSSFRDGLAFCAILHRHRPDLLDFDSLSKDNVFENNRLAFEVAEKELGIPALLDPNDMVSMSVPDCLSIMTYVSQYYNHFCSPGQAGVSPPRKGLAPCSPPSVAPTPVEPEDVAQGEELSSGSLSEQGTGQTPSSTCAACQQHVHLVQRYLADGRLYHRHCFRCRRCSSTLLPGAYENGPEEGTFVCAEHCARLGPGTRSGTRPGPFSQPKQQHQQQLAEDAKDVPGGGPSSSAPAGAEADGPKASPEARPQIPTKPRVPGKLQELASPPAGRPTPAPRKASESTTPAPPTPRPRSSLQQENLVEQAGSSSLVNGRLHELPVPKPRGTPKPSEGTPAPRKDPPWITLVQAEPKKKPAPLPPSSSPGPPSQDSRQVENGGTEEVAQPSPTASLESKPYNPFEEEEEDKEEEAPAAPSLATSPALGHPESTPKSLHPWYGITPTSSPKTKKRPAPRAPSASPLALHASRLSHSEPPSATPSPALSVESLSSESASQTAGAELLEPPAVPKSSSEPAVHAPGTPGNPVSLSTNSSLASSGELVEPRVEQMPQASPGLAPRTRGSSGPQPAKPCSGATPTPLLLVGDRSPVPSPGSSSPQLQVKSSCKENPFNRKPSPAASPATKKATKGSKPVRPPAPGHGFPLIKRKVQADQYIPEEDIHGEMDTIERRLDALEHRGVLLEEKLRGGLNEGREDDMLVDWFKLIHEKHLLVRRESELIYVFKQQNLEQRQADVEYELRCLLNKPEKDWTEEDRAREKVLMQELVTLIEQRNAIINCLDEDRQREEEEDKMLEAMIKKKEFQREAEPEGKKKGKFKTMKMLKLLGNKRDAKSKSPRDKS
# UniProt Q6WCQ1: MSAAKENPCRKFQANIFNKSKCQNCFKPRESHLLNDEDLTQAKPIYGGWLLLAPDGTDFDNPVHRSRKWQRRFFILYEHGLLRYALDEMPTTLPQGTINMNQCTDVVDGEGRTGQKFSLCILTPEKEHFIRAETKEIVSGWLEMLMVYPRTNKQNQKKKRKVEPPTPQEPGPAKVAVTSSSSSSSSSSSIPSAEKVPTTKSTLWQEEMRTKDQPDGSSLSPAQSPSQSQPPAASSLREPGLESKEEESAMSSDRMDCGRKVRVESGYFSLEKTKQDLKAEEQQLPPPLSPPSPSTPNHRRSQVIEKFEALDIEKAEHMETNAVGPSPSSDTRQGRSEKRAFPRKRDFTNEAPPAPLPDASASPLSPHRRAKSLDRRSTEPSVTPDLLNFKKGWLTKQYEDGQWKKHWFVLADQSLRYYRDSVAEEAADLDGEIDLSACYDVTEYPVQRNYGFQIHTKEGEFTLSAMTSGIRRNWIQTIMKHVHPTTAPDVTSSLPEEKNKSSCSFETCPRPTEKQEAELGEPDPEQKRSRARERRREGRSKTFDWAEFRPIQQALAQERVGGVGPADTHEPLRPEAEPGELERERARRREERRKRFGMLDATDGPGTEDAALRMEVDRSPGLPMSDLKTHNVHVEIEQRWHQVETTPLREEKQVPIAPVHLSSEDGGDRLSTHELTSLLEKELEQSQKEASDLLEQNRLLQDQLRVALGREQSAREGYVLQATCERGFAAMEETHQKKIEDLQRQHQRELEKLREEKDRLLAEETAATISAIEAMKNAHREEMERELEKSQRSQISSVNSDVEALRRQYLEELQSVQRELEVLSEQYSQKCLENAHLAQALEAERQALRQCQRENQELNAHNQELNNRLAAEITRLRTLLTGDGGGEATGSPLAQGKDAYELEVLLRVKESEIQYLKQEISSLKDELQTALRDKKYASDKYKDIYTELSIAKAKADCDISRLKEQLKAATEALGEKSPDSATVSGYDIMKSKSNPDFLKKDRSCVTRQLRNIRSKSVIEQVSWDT
# ± gives the standard deviation of the averaged measurements. This data set is noisy: repeats of one test often differ as much as different tests do.
# Compound: CC[C@@H](C)Nc1cc(C(=O)N[C@H]2C[C@H]3CC[C@@H](C2)N3c2ccc(C(=O)C3CC3)cn2)c(C)cc1C(N)=O [XL888]
# Experiment: phosphopeptide melting temperature shift (XL888 minus DMSO); higher = stabilised by drug treatment
# Details: 100 µM; treatment time 2 h; layout: intact cells; SK-Mel 28
# Method: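 Phospho-TPP in intact SK-Mel 28 cells treated with 100 uM XL888 or DMSO for 2 h, heated at 10 temperatures (37-67 C) for 3 min, soluble fraction TMT10plex-labelled and TiO2 phospho-enriched. Melting curves were fitted per phosphopeptide; the value is the melting point difference (drug minus vehicle) in each of two biological replicates.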
row,Target,phosphopeptide melting temperature shift [°C]
1,MAP1B phosphosite_992 (phosphosite position: 992) (UniProt P46821),0.6 ± 1.5
2,MAP1B phosphosite_995 (phosphosite position: 995) (UniProt P46821),0.529 ± 1.4
3,MAP1B phosphosite_1208 (phosphosite position: 1208) (UniProt P46821),2.18
4,MAP1B phosphosite_1298 (phosphosite position: 1298) (UniProt P46821),0.0994 ± 0.45
5,MAP1B phosphosite_1312 (phosphosite position: 1312) (UniProt P46821),0.0994 ± 0.45
6,MAP1B phosphosite_1339 (phosphosite position: 1339) (UniProt P46821),-3.97
7,MAP1B phosphosite_1389 (phosphosite position: 1389) (UniProt P46821),0.113
8,MAP1B phosphosite_1396 (phosphosite position: 1396) (UniProt P46821),-1.11 ± 1.8
9,MAP1B phosphosite_1400 (phosphosite position: 1400) (UniProt P46821),0.818 ± 0.87
10,MAP1B phosphosite_1406 (phosphosite position: 1406) (UniProt P46821),-1.91
11,MAP1B phosphosite_1427 (phosphosite position: 1427) (UniProt P46821),2.99
12,MAP1B phosphosite_1438 (phosphosite position: 1438) (UniProt P46821),0.016 ± 0.35
13,MAP1B phosphosite_1618 (phosphosite position: 1618) (UniProt P46821),-0.928 ± 1.7
14,MAP1B phosphosite_1620 (phosphosite position: 1620) (UniProt P46821),-1.16 ± 1.4
15,MAP1B phosphosite_1779 (phosphosite position: 1779) (UniProt P46821),2.22 ± 1.4
16,MAP1B phosphosite_1782 (phosphosite position: 1782) (UniProt P46821),0.822 ± 0.58
17,MAP1B phosphosite_1785 (phosphosite position: 1785) (UniProt P46821),0.976 ± 0.37
18,MAP1B phosphosite_1793 (phosphosite position: 1793) (UniProt P46821),0.616 ± 0.2
19,MAP1B phosphosite_1797 (phosphosite position: 1797) (UniProt P46821),0.616 ± 0.2
20,MAP1B phosphosite_1881 (phosphosite position: 1881) (UniProt P46821),2.54
21,MAP4 phosphosite_620 (phosphosite position: 620) (UniProt P27816),-1.56
22,MAP4 phosphosite_624 (phosphosite position: 624) (UniProt P27816),-0.559
23,MAP4 phosphosite_1073 (phosphosite position: 1073) (UniProt P27816),3.27
24,MAPRE3 phosphosite_161 (phosphosite position: 161) (UniProt Q9UPY8),-0.0922
25,MATR3 phosphosite_188 (phosphosite position: 188) (UniProt P43243),-5.67
26,MATR3 phosphosite_596 (phosphosite position: 596) (UniProt P43243),0.147
27,MATR3 phosphosite_766 (phosphosite position: 766) (UniProt P43243),0.8 ± 1.4

# Two entries from above, tab-delimited:
row	Target	phosphopeptide melting temperature shift [°C]
22	MAP4 phosphosite_624 (phosphosite position: 624) (UniProt P27816)	-0.559
23	MAP4 phosphosite_1073 (phosphosite position: 1073) (UniProt P27816)	3.27

# (next part)

row,Target,phosphopeptide melting temperature shift [°C]
1,MCM3 phosphosite_681 (phosphosite position: 681) (UniProt P25205),0.0477 ± 2.1
2,MCM3 phosphosite_711 (phosphosite position: 711) (UniProt P25205),-0.826 ± 1.2
3,MCM3 phosphosite_713 (phosphosite position: 713) (UniProt P25205),0.285 ± 0.32
4,MCM3 phosphosite_722 (phosphosite position: 722) (UniProt P25205),0.112 ± 1.3
5,MCM3 phosphosite_728 (phosphosite position: 728) (UniProt P25205),0.892 ± 1.3
6,MDN1 phosphosite_4538 (phosphosite position: 4538) (UniProt Q9NU22),-1.14 ± 0.36
7,MECP2 phosphosite_80 (phosphosite position: 80) (UniProt P51608),1.55 ± 0.35
8,MED1 phosphosite_770 (phosphosite position: 770) (UniProt Q15648),0.592 ± 0.94
9,MED1 phosphosite_771 (phosphosite position: 771) (UniProt Q15648),1.31 ± 0.66
10,MED1 phosphosite_774 (phosphosite position: 774) (UniProt Q15648),1.61 ± 1.1
11,MED1 phosphosite_1479 (phosphosite position: 1479) (UniProt Q15648),-0.335 ± 0.33
12,MED1 phosphosite_1481 (phosphosite position: 1481) (UniProt Q15648),-0.963 ± 0.56
13,MED1 phosphosite_1482 (phosphosite position: 1482) (UniProt Q15648),-0.335 ± 0.33
14,MED13 phosphosite_890 (phosphosite position: 890) (UniProt Q9UHV7),1.05
15,MICAL3 phosphosite_1310 (phosphosite position: 1310) (UniProt Q7RTP6),0.77
16,MICAL3 phosphosite_1371 (phosphosite position: 1371) (UniProt Q7RTP6),1.54 ± 0.46
17,MICALL1 phosphosite_273 (phosphosite position: 273) (UniProt Q8N3F8),0.141
18,MICALL1 phosphosite_484 (phosphosite position: 484) (UniProt Q8N3F8),-2.53
19,MICALL1 phosphosite_486 (phosphosite position: 486) (UniProt Q8N3F8),-2.36
20,MLLT1 phosphosite_475 (phosphosite position: 475) (UniProt Q03111),0.778 ± 3.2
21,MPRIP phosphosite_220 (phosphosite position: 220) (UniProt Q6WCQ1),1.45
22,MPRIP phosphosite_224 (phosphosite position: 224) (UniProt Q6WCQ1),1.45
23,MPRIP phosphosite_993 (phosphosite position: 993) (UniProt Q6WCQ1),1.65
24,MTMR1 phosphosite_655 (phosphosite position: 655) (UniProt Q13613),-1.59
25,MTMR6 phosphosite_561 (phosphosite position: 561) (UniProt Q9Y217),1.28
26,MTOR phosphosite_1261 (phosphosite position: 1261) (UniProt P42345),-1.75 ± 1.2
